Experimental data: PubChem BioAssay AID1259308 (NCATS, 2017)
Test: 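Candidate targets for better recombinant protein yield in mammalian cells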 (primary screen). Cells: human HEK293 embryonic kidney cells stably expressing firefly luciferase (HEK-CMV-Luc2-Hygro). Reagents: single siRNA against human genes, 0.8 pmol siRNA per well. Duration: 72 h. Read-out: 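Reporter luminescence and viable-cell signal on separate replicate plates, given as percent of non-targeting control and median/MAD z-scores, plus per-cell luciferase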. Reading the numbers: total luciferase, z-score and total luciferase, % of control: higher = more reporter protein produced; luciferase per cell, z-score: higher = more reporter output per viable cell; viable cells, % of control: higher = more viable cells. Active means: 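An siRNA counts as active if its total luciferase robust z-score exceeds 3; genes with two or more such siRNAs out of three were retested with fresh siRNAs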. Meaning of the calls: active = raised luciferase; inactive = no rise.
This is one part, drawn at random, of about 59,000 reagents. Over the whole deposit, about 1,510 (2.6%) were called active. 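Calls use total luciferase alone and ignore viability, so some active siRNAs may act by altering cell number.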 The numbers tell different reagents against one gene apart. Reagent sequences are not shown.

gene	siRNA no.	total luciferase, z-score	total luciferase, % of control	luciferase per cell, z-score	viable cells, % of control	activity call
FANCI (FA complementation group I)	1	-1.68	48.4	-1.96	90.6	inactive
FANCI (FA complementation group I)	2	-0.696	68	-0.199	80.1	inactive
FANCI (FA complementation group I)	3	-0.302	75.9	-0.576	98.7	inactive
POLR3C (RNA polymerase III subunit C)	1	-0.925	63.5	-0.916	90.3	inactive
POLR3C (RNA polymerase III subunit C)	2	1.05	103	0.896	90.7	inactive
POLR3C (RNA polymerase III subunit C)	3	-2.08	40.6	-1.94	75.5	inactive
HAGH (hydroxyacylglutathione hydrolase)	1	-0.207	77.8	0.551	75.2	inactive
HAGH (hydroxyacylglutathione hydrolase)	2	0.243	86.7	1.25	69.7	inactive
HAGH (hydroxyacylglutathione hydrolase)	3	-2.19	38.3	-1.53	64.1	inactive
YBEY (ybeY metalloendoribonuclease)	1	0.167	85.2	0.325	87.4	inactive
YBEY (ybeY metalloendoribonuclease)	2	1.07	103	0.935	90.2	inactive
YBEY (ybeY metalloendoribonuclease)	3	0.541	92.7	0.695	86.2	inactive
LOC730179 (retired record)	1	-0.708	67.8	-1.2	104	inactive
LOC730179 (retired record)	2	1.83	118	1.67	85.1	inactive
LOC730179 (retired record)	3	1.99	121	1.47	92.1	inactive
ZBTB32 (zinc finger and BTB domain containing 32)	1	0.987	102	0.5	99.4	inactive
ZBTB32 (zinc finger and BTB domain containing 32)	2	0.544	92.7	0.455	91.9	inactive
ZBTB32 (zinc finger and BTB domain containing 32)	3	0.0268	82.4	-0.686	110	inactive
UBAP1 (ubiquitin associated protein 1)	1	1.13	104	0.647	98.3	inactive
UBAP1 (ubiquitin associated protein 1)	2	1.27	107	1.3	85	inactive
UBAP1 (ubiquitin associated protein 1)	3	-0.145	79	0.379	79.9	inactive
SLC36A4	1	0.529	92.4	1.07	77.8	inactive
SLC36A4	2	2.61	134	2	88.4	inactive
SLC36A4	3	1.48	111	0.623	106	inactive

No new results follow: entries from further up.
gene	siRNA no.	total luciferase, z-score	total luciferase, % of control	luciferase per cell, z-score	viable cells, % of control	activity call
YBEY (ybeY metalloendoribonuclease)	3	0.541	92.7	0.695	86.2	inactive
LOC730179 (retired record)	1	-0.708	67.8	-1.2	104	inactive
LOC730179 (retired record)	2	1.83	118	1.67	85.1	inactive
LOC730179 (retired record)	3	1.99	121	1.47	92.1	inactive
ZBTB32 (zinc finger and BTB domain containing 32)	1	0.987	102	0.5	99.4	inactive
ZBTB32 (zinc finger and BTB domain containing 32)	2	0.544	92.7	0.455	91.9	inactive

The listing continues.
gene	siRNA no.	total luciferase, z-score	total luciferase, % of control	luciferase per cell, z-score	viable cells, % of control	activity call
FUZ (fuzzy planar cell polarity protein)	1	-0.251	76.9	-0.284	92.6	inactive
FUZ (fuzzy planar cell polarity protein)	2	-1.1	59.9	-0.906	85	inactive
FUZ (fuzzy planar cell polarity protein)	3	-1.16	58.8	-0.37	72.5	inactive
TBL2 (transducin beta like 2)	1	-0.0822	80.3	-0.236	95.4	inactive
TBL2 (transducin beta like 2)	2	0.425	90.3	-0.0174	101	inactive
TBL2 (transducin beta like 2)	3	1.2	106	1.51	79.4	inactive
KCTD10 (potassium channel tetramerization domain containing 10)	1	1.93	120	1.61	87.9	inactive
KCTD10 (potassium channel tetramerization domain containing 10)	2	-0.276	76.4	-0.312	92.7	inactive
KCTD10 (potassium channel tetramerization domain containing 10)	3	0.0315	82.5	1.79	57.5	inactive
SV2B (synaptic vesicle glycoprotein 2B)	1	-0.397	74	0.564	71.3	inactive
SV2B (synaptic vesicle glycoprotein 2B)	2	-1.46	52.9	-0.956	76.1	inactive
SV2B (synaptic vesicle glycoprotein 2B)	3	0.404	89.9	0.203	95.2	inactive
MAML2 (mastermind like transcriptional coactivator 2)	1	0.531	92.4	-0.451	116	inactive
MAML2 (mastermind like transcriptional coactivator 2)	2	0.523	92.3	0.212	97.5	inactive
MAML2 (mastermind like transcriptional coactivator 2)	3	-0.473	72.5	-1.09	108	inactive
HARS1 (histidyl-tRNA synthetase 1)	1	1.44	111	1.34	86.9	inactive
HARS1 (histidyl-tRNA synthetase 1)	2	-2.72	27.8	-1.7	48.7	inactive
HARS1 (histidyl-tRNA synthetase 1)	3	1.13	104	0.99	89.9	inactive
SBK1 (SH3 domain binding kinase 1)	1	-0.277	76.4	0.0476	84.3	inactive
SBK1 (SH3 domain binding kinase 1)	2	1.36	109	0.305	112	inactive
SBK1 (SH3 domain binding kinase 1)	3	1.55	113	1.16	92.9	inactive
HHIPL2 (HHIP like 2)	1	-0.852	64.9	-0.907	92.1	inactive
HHIPL2 (HHIP like 2)	2	0.759	97	0.845	86.7	inactive
HHIPL2 (HHIP like 2)	3	1.06	103	0.766	94	inactive
LOC732272 (retired record)	1	0.0239	82.4	-0.0518	93.3	inactive
LOC732272 (retired record)	2	-1.58	50.5	-0.927	72.1	inactive
LOC732272 (retired record)	3	-1.43	53.5	-0.512	68.4	inactive
POLR2J4 (RNA polymerase II subunit J4 (pseudogene))	1	-0.341	75.1	0.157	80.5	inactive
POLR2J4 (RNA polymerase II subunit J4 (pseudogene))	2	-1.18	58.3	-0.0317	65.7	inactive
POLR2J4 (RNA polymerase II subunit J4 (pseudogene))	3	3.76	157	3.89	62.8	active
APLNR (apelin receptor)	1	1.64	115	0.861	102	inactive
APLNR (apelin receptor)	2	0.306	88	0.556	84.9	inactive
APLNR (apelin receptor)	3	-0.169	78.5	-0.285	94.6	inactive
